Test: general procedure: solution-phase peptide synthesis; HBTU/DIPEA; HATU/DIPEA

((2R,4R,5S)-5-((S)-2-Ammonio-3-methylbutanamido)-4-hydroxy-6-methyl-2-(4-methylbenzyl)heptanoyl)-L-prolyl-L-tryptophanate
step yield (late stage modification step, 2 steps from 30b): 36%

((S)-1-((2R,4R,5S)-5-((S)-2-Ammonio-3-methylbutanamido)-2-benzyl-4-hydroxy-6-methylheptanoyl)piperidine-2-carbonyl)-L-tryptophanate
step yield (late stage modification step, 2 steps from 37a): 31%

Methyl ((2R,4R,5S)-5-((S)-2-((tert-butoxycarbonyl)amino)-3-methylbutanamido)-4-hydroxy-6-methyl-2-(4-methylbenzyl)heptanoyl)-L-prolyl-L-tryptophanate
step yield (coupling step, 2 steps from 28b): 38%

((2R,4R,5S)-5-((S)-2-Ammonio-3-methylbutanamido)-4-hydroxy-2-(4-hydroxybenzyl)-6-methylheptanoyl)-L-prolyl-L-tryptophanate
step yield (late stage modification step, 2 steps from 30c): 27%

(2S)-2-{[(2S)-1-[(2R,4S,5S)-5-[(2S)-2-Azaniumyl-3-methylbutanamido]-2-benzyl-4-hydroxy-6-methylheptanoyl]pyrrolidin-2-yl]formamido}-3-(1H-indol-3-yl)propanoate
step yield (late stage modification step, 2 steps, from 9): 46%

Methyl (2S)-2-{[(2S)-1-[(2R,4S,5S)-2-benzyl-5-[(2S)-2-{[(tert-butoxy)carbonyl]amino}-3-methylbutanamido]-4-hydroxy-6-methylheptanoyl]pyrrolidin-2-yl]formamido}-3-(1H-indol-3-yl)propanoate
step yield (coupling step, 2 steps from 8): 52%, 2 steps, from 8%

((S)-1-((2R,4R,5S)-5-((S)-2-Ammonio-3,3-dimethylbutanamido)-2-benzyl-4-hydroxy-6-methylheptanoyl)piperidine-2-carbonyl)-L-tryptophanate
step yield (late stage modification step, 2 steps from 36b): 25%

Methyl ((2R,4R,5S)-5-((S)-2-((tert-butoxycarbonyl)amino)-3-methylbutanamido)-2-(4-fluorobenzyl)-4-hydroxy-6-methylheptanoyl)-L-prolyl-L-tryptophanate
step yield (coupling step, 2 steps from 28a): 48%

Methyl (2S)-2-{[(2S)-1-[(2R,4S,5S)-2-benzyl-5-{[(tert-butoxy)carbonyl]amino}-4-[(tert-butyldimethylsilyl)oxy]-6-methylheptanoyl]pyrrolidin-2-yl]formamido}-3-(1H-indol-3-yl)propanoate
step yield (coupling step, from 7): 74% from 7%

((2R,4R,5S)-5-((S)-2-Ammonio-3-methylbutanamido)-2-(4-fluorobenzyl)-4-hydroxy-6-methylheptanoyl)-L-prolyl-L-tryptophanate
step yield (late stage modification step): 29%

((2R,4R,5S)-5-((S)-2-Ammonio-3-methylbutanamido)-2-benzyl-4-hydroxy-6-methylheptanoyl)-L-prolyl-L-tryptophanate (HER)
step yield (late stage modification step): 44%

Methyl ((2R,4R,5S)-5-((S)-2-amino-3-methylbutanamido)-4-hydroxy-2-(4-hydroxybenzyl)-6-methylheptanoyl)-L-prolyl-L-tryptophanate
step yield (late stage modification step): 31%

— article PMC8518066 (Chemistry (Weinheim an Der Bergstrasse, Germany), 2021)
